In paper PMC9425028:
These are yes or no findings as the source states them, for the method shown. Binding seen in cells or lysates may run through a third protein. Some binding calls cover weakened binding; strength is not graded here.

Sequences of proteins named here, by UniProt entry; tags and fusion partners are left off. A change or cut given only in a name is not applied to a line headed by its entry. A line that says so, or that is headed by a name, gives the form on record, which may keep a tag or linker. Residues count along the entry.
wild-type recombinant mouse MASP-3 fused with PA-tag (WT rmMASP-3-PA) (P98064, form named): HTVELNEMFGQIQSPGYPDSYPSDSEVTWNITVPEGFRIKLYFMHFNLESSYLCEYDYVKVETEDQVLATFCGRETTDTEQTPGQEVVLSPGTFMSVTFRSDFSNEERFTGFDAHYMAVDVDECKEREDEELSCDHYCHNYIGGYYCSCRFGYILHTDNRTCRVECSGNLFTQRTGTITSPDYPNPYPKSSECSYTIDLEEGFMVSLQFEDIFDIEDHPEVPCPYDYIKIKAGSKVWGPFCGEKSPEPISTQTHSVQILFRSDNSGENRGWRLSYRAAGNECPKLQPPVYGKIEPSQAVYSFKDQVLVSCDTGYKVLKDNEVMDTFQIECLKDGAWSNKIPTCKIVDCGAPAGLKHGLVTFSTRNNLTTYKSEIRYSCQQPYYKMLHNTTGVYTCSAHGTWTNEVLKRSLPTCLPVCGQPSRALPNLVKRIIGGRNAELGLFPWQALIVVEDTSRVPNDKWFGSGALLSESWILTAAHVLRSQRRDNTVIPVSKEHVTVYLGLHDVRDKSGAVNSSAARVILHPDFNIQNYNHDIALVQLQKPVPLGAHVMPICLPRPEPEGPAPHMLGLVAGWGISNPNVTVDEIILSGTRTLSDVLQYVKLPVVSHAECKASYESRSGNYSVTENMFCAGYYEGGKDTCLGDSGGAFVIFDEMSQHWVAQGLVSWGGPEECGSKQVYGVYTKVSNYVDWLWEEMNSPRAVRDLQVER
UniProt Q3SXB8, residues 27-272: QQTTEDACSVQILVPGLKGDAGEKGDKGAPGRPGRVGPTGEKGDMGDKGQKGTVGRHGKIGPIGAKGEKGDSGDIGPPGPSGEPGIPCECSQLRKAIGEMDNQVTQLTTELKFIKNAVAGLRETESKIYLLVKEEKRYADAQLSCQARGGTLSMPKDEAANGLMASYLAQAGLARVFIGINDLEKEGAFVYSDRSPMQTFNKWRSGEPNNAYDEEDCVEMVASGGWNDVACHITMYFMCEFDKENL
UniProt P39039, residues 19-239: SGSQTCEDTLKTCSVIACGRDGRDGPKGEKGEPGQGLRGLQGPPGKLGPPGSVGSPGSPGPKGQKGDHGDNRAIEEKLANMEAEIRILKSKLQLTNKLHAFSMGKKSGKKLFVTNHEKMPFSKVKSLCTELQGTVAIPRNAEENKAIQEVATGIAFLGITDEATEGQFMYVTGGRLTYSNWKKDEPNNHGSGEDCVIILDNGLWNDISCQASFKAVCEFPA
UniProt P41317, residues 19-244: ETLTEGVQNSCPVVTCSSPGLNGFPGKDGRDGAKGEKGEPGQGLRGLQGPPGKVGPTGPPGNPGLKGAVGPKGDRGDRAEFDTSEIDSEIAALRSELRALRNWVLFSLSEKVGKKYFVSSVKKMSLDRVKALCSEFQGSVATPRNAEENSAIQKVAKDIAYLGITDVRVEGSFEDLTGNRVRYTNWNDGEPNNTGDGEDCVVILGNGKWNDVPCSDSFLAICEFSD

Molecular target: wild-type recombinant mouse MASP-3 fused with PA-tag (WT rmMASP-3-PA) (mouse) (UniProt P98064)
Test: co-IP; 100 ug rmMASP-3-PA given intravenously to MASP-3-deficient C57BL/6J mice, serum taken after 3 h; immunoprecipitation with anti-PA tag antibody beads in TBS with 7 mM MgCl2 and 5 mM CaCl2, 4°C overnight, four washes; reducing SDS-PAGE and Western blot for each LP-PRM, band intensity normalised to rmMASP-3-PA; WT serum also precipitated in TBS with 7 mM MgCl2 and 10 mM EGTA as negative control (levels significantly reduced); only the target purified

Substance | binding
mouse collectin kidney 1 (CL-K1) (from UniProt Q3SXB8 27-272) | binds
mouse mannose-binding lectin A (MBL-A) (from UniProt P39039 19-239) | binds
mouse mannose-binding lectin C (MBL-C) (from UniProt P41317 19-244) | binds
